Results reported in the supplement of paper PMC3682954.
Several values for one entry are separate records, joined by “and”; a condition that tells them apart may be missing. Identical values can stand only once. Counter-ions that a name gives are not always drawn. ± gives the standard deviation of the averaged measurements. This is one part of the list. Single values are uncertain, as repeats are few or missing.

System: RAW 264.7
Assay: HMGB1-induced TNF-alpha production relative to HMGB1-stimulated control; higher = more TNF-alpha secretion (less inhibition)
Settings: stimulus: HMGB1 5 ug/ml, 18 h
[1] = compound concentration: 1 ug/ml

Row | SMILES | HMGB1-induced TNF-alpha production (compound concentration: 3 uM) | HMGB1-induced TNF-alpha production [1]
1 | Nc1c2ccccc2nc2ccccc12 | 52.6% | –
2 | Cc1ccc(=O)n(-c2ccccc2)c1 [Pirfenidone] | 117% | –
3 | N[C@@H](Cc1cc(I)c(Oc2ccc(O)c(I)c2)c(I)c1)C(=O)O | 90.4% | –
4 | N[C@@H](Cc1cc(I)c(Oc2ccc(O)c(I)c2)c(I)c1)C(=O)O [Liothyronine] | 116% | –
5 | N[C@@H](Cc1cc(I)c(Oc2ccc(O)c(I)c2)c(I)c1)C(=O)O [LIOTHYRONINE (L- isomer) SODIUM] | 89% | –
6 | N[C@@H](Cc1cc(I)c(Oc2ccc(O)c(I)c2)c(I)c1)C(=O)O [3,3',5-Triiodo-L-thyronine] | – | 69.6%
7 | Cc1ccc2oc(-c3ccccc3)cc(=O)c2c1 [6-Methylflavone] | – | 59.9%
8 | CC(=O)/C=C1/C(=O)N(C)c2ccccc21 [Supercinnamaldehyde] | 123% | –
9 | O=C(/C=C/c1ccc(O)cc1)c1ccc(O)cc1O [Isoliquiritigenin] | 101% | –
10 | Cc1c(NC(=O)c2cccnc2)c(=O)n(-c2ccccc2)n1C | 91.5% | –
11 | Cc1c(NC(=O)c2cccnc2)c(=O)n(-c2ccccc2)n1C [Nifenazone] | 73.9% | –
12 | CS(=O)(=O)OCCCCOS(C)(=O)=O | 85.73 ± 0.27% | –
13 | CS(=O)(=O)OCCCCOS(C)(=O)=O [Busulfan] | 90.6% | –
14 | CC(O)Cn1cnc2c1c(=O)n(C)c(=O)n2C (stereo not drawn) | 72.5% | –
15 | N[C@@H](Cc1c[nH]c2ccccc12)C(=O)O | 84.3% | –
16 | N[C@@H](Cc1c[nH]c2ccccc12)C(=O)O [L-Tryptophan] | 90.9% | 58.6%
17 | O=C(OOC(=O)c1ccccc1)c1ccccc1 | 78.2% | –
18 | Nc1cc(=O)[nH]c(N)n1 [2,4-Diamino-6-pyrimidinone] | 95.2% | –
19 | CCC1(C)OC(=O)N(C)C1=O (stereo not drawn) | 77.1% | –
20 | Cc1ccc2nc(CN(CCN(Cc3nc4ccc(C)cc4[nH]3)Cc3nc4ccc(C)cc4[nH]3)Cc3nc4ccc(C)cc4[nH]3)[nH]c2c1 | 46.1% | –

Row | SMILES | HMGB1-induced TNF-alpha production (compound concentration: 3 uM) | HMGB1-induced TNF-alpha production [1]
21 | COc1cc(OC)c2c(c1)OC(c1ccc(O)cc1)CC2=O (stereo not drawn) [4'-Hydroxy-5,7-dimethoxyflavanone] | – | 92.3%
22 | NC(=O)CCCCC1CCSS1 (stereo not drawn) | 88.5% | –
23 | CC(C)NC[C@@H](O)COc1ccc(CC(N)=O)cc1 [(R)-(+)-Atenolol] | 107% | –
24 | NS(=O)(=O)c1cc2c(cc1C(F)(F)F)NCNS2(=O)=O | 83.6% | –
25 | NS(=O)(=O)c1cc2c(cc1C(F)(F)F)NCNS2(=O)=O [Hydroflumethiazide] | 72.3% | –
26 | OC[C@H]1O[C@@H](n2cnc3c(N[C@H]4CCC[C@@H]4O)ncnc32)[C@H](O)[C@@H]1O | 86.8% | –
27 | COC1(C2=NCCN2)COc2ccccc2O1 (stereo not drawn) | 116% | –
28 | CCn1c(=O)[nH]c2cc(Cl)c(Cl)cc21 | 88.4% | –
29 | CN1C(=O)CC[C@H]1c1cccnc1 | 71.1% | –
30 | CN1C(=O)CC[C@H]1c1cccnc1 [(-)-Cotinine] | 87.3 ± 14% | 76.9%
31 | CC[C@@]1(O)C[C@H](O[C@H]2C[C@H](N(C)C)[C@H](O[C@H]3C[C@H](O)[C@H](O[C@H]4CCC(=O)[C@H](C)O4)[C@H](C)O3)[C@H](C)O2)c2c(cc3c(c2O)C(=O)c2c(O)cccc2C3=O)[C@H]1C(=O)OC [Aclarubicin] | 20.4% | –
32 | Cc1cc2c(C(C)C)c(O)c(O)c(C=Nc3ccc4c(c3)CCN4S(C)(=O)=O)c2c(O)c1-c1c(C)cc2c(C(C)C)c(O)c(O)c(C=Nc3ccc4c(c3)CCN4S(C)(=O)=O)c2c1O | – | 71%
33 | CC[C@@H]1C(=O)OC[C@@H]1Cc1cncn1C [(+)-Pilocarpine hydrochloride] | 107% | –
34 | CC[C@@H]1C(=O)OC[C@@H]1Cc1cncn1C [Pilocarpine nitrate] | 94 ± 47% | –
35 | CC[C@@H]1C(=O)OC[C@@H]1Cc1cncn1C [Pilocarpine hydrochloride] | – | 83.5%
36 | CC[C@@H]1C(=O)OC[C@@H]1Cc1cncn1C [Pilocarpine] | 112% | –
37 | CC[C@@H]1C(=O)OC[C@@H]1Cc1cncn1C | 97.5% and 105% | –
38 | Cc1ccc2oc(=O)c(-c3ccc(Cl)cc3)c(C)c2c1 [3(4'-Chlorophenyl)-4,6-dimethylcoumarin] | – | 74.7%
39 | CSC(=N)NCCC[C@H](N)C(=O)O [S-Methyl-L-thiocitrulline acetate] | 115% | –
40 | CO[C@@H]1[C@@H](O[C@@H]2O[C@H](C)[C@@H](O[C@H]3C[C@@](C)(O)[C@@H](OC(=O)CC(C)C)[C@H](C)O3)[C@H](N(C)C)[C@H]2O)[C@@H](CC=O)C[C@@H](C)[C@@H](O)/C=C/C=C/C[C@@H](C)OC(=O)C[C@H]1OC(C)=O [Josamycin] | 94.4% | 76.1%
